Assay results reported in paper PMC6704583.
No constants are given. Whether binding was seen depends on the method and setting. Binding seen in cells or lysates may run through a third protein.

Sequences of proteins named here, by UniProt entry; tags and fusion partners are left off.
UniProt Q15717: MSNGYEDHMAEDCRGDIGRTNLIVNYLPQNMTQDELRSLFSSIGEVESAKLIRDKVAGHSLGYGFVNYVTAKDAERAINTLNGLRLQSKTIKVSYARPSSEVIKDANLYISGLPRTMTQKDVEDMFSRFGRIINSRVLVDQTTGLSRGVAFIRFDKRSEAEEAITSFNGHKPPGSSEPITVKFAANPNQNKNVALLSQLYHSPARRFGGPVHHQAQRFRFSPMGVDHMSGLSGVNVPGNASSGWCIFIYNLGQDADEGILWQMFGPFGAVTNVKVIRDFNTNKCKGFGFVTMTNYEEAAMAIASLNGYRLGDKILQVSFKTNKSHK

Molecular target: T1, Wilms tumor 1-associated protein (WTAP) (human (endogenous in Huh7)) (UniProt Q15007)
T1 sequence: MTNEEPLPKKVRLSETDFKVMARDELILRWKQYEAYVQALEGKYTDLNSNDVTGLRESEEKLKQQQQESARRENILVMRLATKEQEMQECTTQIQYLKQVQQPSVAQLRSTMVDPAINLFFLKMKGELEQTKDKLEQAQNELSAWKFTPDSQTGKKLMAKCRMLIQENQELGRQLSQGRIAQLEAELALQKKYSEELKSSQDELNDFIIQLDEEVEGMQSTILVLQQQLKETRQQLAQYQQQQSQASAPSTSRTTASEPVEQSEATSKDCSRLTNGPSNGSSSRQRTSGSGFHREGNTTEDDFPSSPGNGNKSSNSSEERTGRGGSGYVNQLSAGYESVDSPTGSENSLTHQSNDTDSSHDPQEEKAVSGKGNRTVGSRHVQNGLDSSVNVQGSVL
Assay: co-IP; Huh7 cells; Dynabeads Co-Immunoprecipitation Kit; protein extracted with IP Lysis Buffer put on beads premixed with antibodies of WTAP or IgG; partners of WTAP identified by immunoblots

binding: no binding
Substance: Hu-Antigen R (HuR) (from UniProt Q15717 1-326)
